Reference: paper PMC12128024 (Bioconjugate Chemistry, 2025)

Test: general procedure: Fmoc solid-phase peptide synthesis; chlorotrityl resin; HBTU (Arg), HATU (Fmoc-βAlaBpy-OH); PyAOP for cyclisation
Details: whole synthesis, scale 0.05 mmol, TFA salt

| Substance | isolated mass | isolated yield |
| --- | --- | --- |
| cyclo-(βAlaBpy-Arg3)2 | 52.1 mg | 71% |
| cyclo-(βAlaBpy-Arg3)3 | 50.2 mg | 68% |
